{"source": "PubChem BioAssay AID743454 (Peter MacCallum Cancer Centre, 2014)", "purpose": "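Search for knock-downs that restore vorinostat killing in resistant colon cancer cells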 (primary screen)", "system": "human HCT116-VR colon cancer cells, selected for vorinostat resistance", "knock-down reagent": "siRNA pool against human genes, 40 nM siRNA pool", "time to read-out": "vorinostat for 24 h, read-out about 72 h after transfection", "treatment": "vorinostat at 2.5 µM final", "measured": "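Cell viability by CellTiter-Fluor and caspase 3/7 activity by luminescence, each scaled to mock wells per plate, duplicates averaged, then robust z-scored over all plates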", "direction": "viability robust z-score: higher = more viable cells than screen typical; caspase robust z-score: higher = more caspase 3/7 activity than screen typical", "active means": "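Hits are knock-downs in viability class RV1/RV2 or caspase class CA1/CA2, excluding ones that killed cells in the no-drug cell-count arm; hits then retested with single siRNAs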", "note": "The deposit covers about 18,000 reagents; this is a part drawn at random. Of all reagents, 450 (2.5%) got an active call. 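Single biological run; no consistent viability z cut-off exists, so the class columns, not z-scores, define the calls.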 Entries without a mark were called inactive."}
{"target":"MT1M (GeneID 4499)","viability hit class":"no change","caspase hit class":"no change","viability robust z-score":-0.12,"caspase robust z-score":1.57}
{"target":"GNPTAB (GeneID 79158)","viability hit class":"no change","caspase hit class":"no change","viability robust z-score":0.24,"caspase robust z-score":-0.58}
{"target":"MGAT4D (GeneID 152586)","viability hit class":"no change","caspase hit class":"no change","viability robust z-score":0.76,"caspase robust z-score":-0.38}
{"target":"CPA6 (GeneID 57094)","viability hit class":"no change","caspase hit class":"no change","viability robust z-score":1.14,"caspase robust z-score":-0.3}
{"target":"ZNF467 (GeneID 168544)","viability hit class":"no change","caspase hit class":"no change","viability robust z-score":-1.06,"caspase robust z-score":0.6}
{"target":"ZNF625 (GeneID 90589)","viability hit class":"no change","caspase hit class":"no change","viability robust z-score":-0.68,"caspase robust z-score":-0.76}
{"target":"PTCH2 (GeneID 8643)","viability hit class":"no change","caspase hit class":"no change","viability robust z-score":-1.16,"caspase robust z-score":-0.55}
{"target":"LAMC2 (GeneID 3918)","viability hit class":"no change","caspase hit class":"no change","viability robust z-score":0.06,"caspase robust z-score":-0.24}
{"target":"RSPO1 (GeneID 284654)","viability hit class":"no change","caspase hit class":"no change","viability robust z-score":-0.89,"caspase robust z-score":1.21}
{"target":"USP33 (GeneID 23032)","viability hit class":"no change","caspase hit class":"no change","viability robust z-score":-1.14,"caspase robust z-score":0.22}
{"target":"TUBG1 (GeneID 7283)","viability hit class":"no change","caspase hit class":"no change","viability robust z-score":-1.52,"caspase robust z-score":4.04}
{"target":"PRKCG (GeneID 5582)","viability hit class":"no change","caspase hit class":"no change","viability robust z-score":0.72,"caspase robust z-score":0.02}

Part of the list above, set out differently.
target,viability hit class,caspase hit class,viability robust z-score,caspase robust z-score
RSPO1 (GeneID 284654),no change,no change,-0.89,1.21
USP33 (GeneID 23032),no change,no change,-1.14,0.22
